{
  "source": "PubChem BioAssay AID232",
  "about": "(DTP/NCI, 2004)",
  "system": "Gardner 6C3HED lymphosarcoma ip, C3AKF1 mice, survival T/C",
  "experiment": "NCI In Vivo Anticancer Drug Screen. Data for tumor model Lymphosarcoma Gardner 6C3HED (intraperitoneal) in C3AKF1 (CHKRF1) mice",
  "conditions": "T/C endpoint: survival time, mean or median, schedule: Q01DX010 (ip), vehicle: saline, higher T/C = longer survival",
  "method": "The antitumor activity of compounds was measured in mice bearing transplantable tumors. Survival or tumor size were measured and the results are expressed as the measurement made in the treated group (T) divided by the measurement made in the vehicle treated control group (C). The tumor model used in this assay is Lymphosarcoma Gardner 6C3HED (intraperitoneal) in C3AKF1 (CHKRF1) mice",
  "note": "The list shows only some results of the screen, not a fair sample: its compounds were picked by chemical class. Other doses and runs of a compound may be missing. T/C is the treated group as % of the vehicle group. Some entries give survivors of the animals treated and no T/C: the source files T/C as zero there, which appears to mark a toxic dose or a test without result, not a measured value. Some survivor counts are full or nearly so, which does not show that the dose was tolerated: survival well below the control is almost never listed, so the zero probably covers shortened survival too. Counts of survivors are from the toxicity check (mostly the fifth day) where no day follows; animals may have died later. Schedules are NCI's codes, taken here to give the interval after Q, in days (D) or hours (H), and the number of doses after X. Some entries were tested several times; the values are given in rising order. For survival time, this PubChem deposit counts one and a half times the control or more as active, and values a quarter to a half above the control carry no call in these data; other NCI protocols may use other cut-offs.",
  "data": [
    {"smiles": "Cc1[nH]c(=O)[nH]c(=O)c1N(CCCl)CCCl", "values": [
      {"measurement": "T/C", "setting": "dose: 0.5 mg/kg/injection", "value": "118 % of control"},
      {"measurement": "T/C", "setting": "dose: 1.0 mg/kg/injection", "value": "103 % of control"},
      {"measurement": "T/C", "setting": "dose: 2.0 mg/kg/injection", "value": "129 % of control"},
      {"measurement": "T/C", "setting": "dose: 4.0 mg/kg/injection", "value": "200 % of control"}
    ]},
    {"smiles": "CN(N=O)C(=N)N[N+](=O)[O-]", "values": [
      {"measurement": "T/C", "setting": "dose: 8.0 mg/kg/injection", "value": "185 and 190 % of control"},
      {"measurement": "T/C", "setting": "dose: 16.0 mg/kg/injection", "value": "110 and 128 % of control"},
      {"measurement": "T/C", "setting": "dose: 32.0 mg/kg/injection", "value": "95 % of control"},
      {"measurement": "survivor count", "setting": "dose: 32.0 mg/kg/injection", "value": "6 of 6"},
      {"measurement": "survivor count", "setting": "dose: 64.0 mg/kg/injection", "value": "3 of 6 and 5 of 6"}
    ]},
    {"smiles": "NC1CCCCC1.O=P(O)(N(CCCl)CCCl)N1CC1", "values": [
      {"measurement": "T/C", "setting": "dose: 1.25 mg/kg/injection", "value": "92 % of control"},
      {"measurement": "T/C", "setting": "dose: 2.5 mg/kg/injection", "value": "100 % of control"},
      {"measurement": "T/C", "setting": "dose: 5.0 mg/kg/injection", "value": "118 % of control"},
      {"measurement": "T/C", "setting": "dose: 10.0 mg/kg/injection", "value": "151 % of control"}
    ]}
  ]
}
